Experimental data as given in PubChem BioAssay AID2685 (National Center for Advancing Translational Sciences (NCATS), 2010).
About 2,100 (0.66%) of roughly 320,000 compounds were called active. The inconclusive results got no clear call from the source; some entries with a clear call stand among them for comparison. Calls come from the whole dose curve; as a rule, active = well fitted inhibition curve with a large enough effect in the signal ratio, with a control signal flat (not every such curve was filed as active); inconclusive = small, poorly fitted or top-dose-only effect, or effect the other way, or a change in a side signal; inactive = flat fitted curve, though single readings scatter; the % refers to the signal ratio. A potency beside an inconclusive call is a rough fit, not a confirmed value.

assay: qHTS Assay for Lipid Storage Modulators in Drosophila S3 Cells; details: BODIPY lipid droplet fluorescence, 18-24 h, cells fed with added oleic acid; lipid storage change, negative = inhibition: at 46.1 µM (top of the series) unless noted
Method in brief: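 Drosophila S3 cells loaded with oleic acid (400 uM, as added) and compounds at several concentrations; lipid droplets imaged by 488-nm laser-scanning cytometry, 500–530 nm intensity and object ratio to cell channel. Percent activity normalized to 20 uM Triacsin C.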
% is set by controls: 0 for no effect and ±100 for the full control effect; potency is the fitted concentration of half-maximal effect.

| SMILES | Potency | lipid storage change, negative = inhibition |
| --- | --- | --- |
| O=C(COc1cc(=O)n2c(n1)SCCC2)c1ccccc1 | inconclusive: 16.4 µM [activator, single point] | – |
| CCOC(=O)c1c(C)[nH]c(C)c1C(=O)COC(=O)c1c(OC)cccc1OC | – | inconclusive: 27.9% |
| CCOc1cc(CNc2ccc(N(C)C)cc2)cc(Br)c1OCC(=O)NC(C)(C)C | inconclusive: 29.1 µM [cytotoxic, single point] | – |
| O=C1CC(C(=O)Nc2ccc(F)c(Cl)c2)N=C(N2CCCCC2)N1 (stereo not given) | inconclusive: 3.66 µM [falling, full curve] | – |
| CC(=O)c1c(C)n(CCO)c2ccc(O)cc12 | inconclusive: 1.46 µM [rising, full curve] | – |
| COc1cccc(C(=O)N(Cc2ccco2)c2c(N)n(Cc3ccccc3)c(=O)[nH]c2=O)c1 | – | inconclusive: -19.8% |
| CCOC(=O)C1=NN(C(C)=O)C2(CC(=O)N(c3cccc(C)c3)C2=O)C1 (stereo not given) | – | inconclusive: -20.6% |
| C[C@@H](OC(=O)N1CCCCC1)[C@H]1O[C@]2(C)CCCC[C@H]1O2 | inconclusive: 0.517 µM [activator, partial curve, poor fit] | – |
| CCc1cccc(OCC(O)Cn2c(N3CCCCC3)nc3c2c(=O)[nH]c(=O)n3C)c1 (stereo not given) | inconclusive: 4.61 µM [falling, single point] | – |
| CCCCc1ccc(NC(=O)CC(C)C)cc1 | inconclusive: 0.517 µM [falling, full curve, poor fit] | – |
| O=C(Cn1ncc(Cl)c(Cl)c1=O)NC1CCCCC1 | – | inconclusive: 6.75% |
| CSc1nsc(/C=C/Nc2ccc(Cl)cc2)c1C#N | inconclusive: 23.1 µM [falling, single point] | – |
| CCOC(=O)C1(Cc2cccc(OC)c2)CCN(Cc2ccccc2)CC1 | – | inconclusive: -8.37% |
| CCOC(=O)NC(=O)/C(C=Nc1ccc(Cl)cc1)=C(\C)O | – | inconclusive: -16.6% |
| O=c1c2ccccc2nnn1Cc1cccc2ccccc12 | – | inconclusive: 1.55% |
| CC(C(=O)O)n1cnc2sc3c(c2c1=O)CCCC3 (stereo not given) | – | inconclusive: -9.14% |
| Cc1ccc(-c2cc(C(F)F)n3ncc(C(=O)NN4CCCCC4)c3n2)cc1 | – | inconclusive: -14.1% |
| O=C(Cc1sc(-c2ccccc2)nc1-c1ccccc1)Nc1ccccc1 | inconclusive: 0.461 µM [activator, full curve] | – |
| CCNS(=O)(=O)c1ccc(NC(=O)Nc2cc(C)ccc2OC)cc1 | – | inconclusive: -23.4% |
| Cc1ccccc1Oc1cc(NC(=O)Cn2cnc([N+](=O)[O-])c2)cc([N+](=O)[O-])c1 | inconclusive: 0.0046 µM [falling, full curve, poor fit] | – |
| CC(=O)c1cccc(NC(=O)CN2C(=O)NC(C)(c3ccc4c(c3)OCCCO4)C2=O)c1 (stereo not given) | inconclusive: 8.2 µM [activator, single point] | – |
| O=C(Nc1nc(-c2cc(Cl)sc2Cl)cs1)c1ccccc1 | – | inconclusive: 65.6% |
| CCc1cc(=O)oc2cc(C)cc(OCC(=O)NC(Cc3c[nH]c4ccc(O)cc34)C(=O)O)c12 (stereo not given) | inconclusive: 0.58 µM [activator, single point] | – |
| Cc1onc(-c2ccccc2Cl)c1C(=O)Nc1ccccc1C(N)=O | – | inconclusive: -35.6% |
| CCOc1cc(C(N)=O)cc(Br)c1OCC | inconclusive: 13 µM [activator, partial curve, poor fit] | – |

Molecules shown so far that contain bromine, in the order listed:

| SMILES | Potency | lipid storage change, negative = inhibition |
| --- | --- | --- |
| CCOc1cc(CNc2ccc(N(C)C)cc2)cc(Br)c1OCC(=O)NC(C)(C)C | inconclusive: 29.1 µM [cytotoxic, single point] | – |
| CCOc1cc(C(N)=O)cc(Br)c1OCC | inconclusive: 13 µM [activator, partial curve, poor fit] | – |

(more compounds)

| SMILES | Potency | lipid storage change, negative = inhibition |
| --- | --- | --- |
| CCC1(C)Cc2c(sc3nc(SC)n(Cc4ccccc4)c(=O)c23)CO1 (stereo not given) | inconclusive: 8.2 µM [activator, partial curve, poor fit] | – |
| CC(CC(=O)O)CC1=NS(=O)(=O)c2ccccc2N1 (stereo not given) | active: 13 µM | – |
| COc1ccc(-c2cc(C)no2)cc1S(=O)(=O)Nc1cccc(C)c1 | inconclusive: 3.26 µM [activator, single point] | – |
| CCc1ccc(N2CC(C(=O)OCC(=O)Nc3ccc(C(C)=O)cc3)CC2=O)cc1 (stereo not given) | inconclusive: 0.259 µM [falling, full curve] | – |
| O=C(NCCc1c[nH]c2ccccc12)c1ccc2nc[nH]c2c1 | – | inconclusive: 4.53% |
| O=C(Nc1ccncc1)c1cc2ccccc2cc1O | – | inconclusive: 20.5% |
| CC(=O)N1CCN(c2ccc(Oc3ncnc4sccc34)cc2)CC1 | inconclusive: 2.06 µM [falling, partial curve] | – |
| COc1ccc(CN(C(=O)c2snc(C(N)=O)c2N)C(CC(C)C)C(=O)NC2CCCCC2)cc1 (stereo not given) | inconclusive: 29.1 µM [falling, single point] | – |
| N#C/C(=C\c1cccs1)C(=O)c1ccccc1 | – | inconclusive: 27.7% |
| CN(CC(=O)Nc1ccc(Cl)cc1)CC(=O)Nc1cccc2ccccc12 | inconclusive: 0.092 µM [falling, partial curve] | – |
| CCNc1c([N+](=O)[O-])ncn1C | inconclusive: 0.206 µM [falling, full curve, poor fit] | – |
| O=c1[nH]c2cc3c(cc2cc1CN(CCc1ccccc1)Cc1nnnn1C1CCCC1)OCCO3 | – | inconclusive: 47.5% |
| CCCS(=O)(=O)Nc1c(OC)ccc2c1c(C(=O)OCC)c(C)n2C | – | inconclusive: 22.7% |
| Cc1ccccc1NC(=O)Cc1nc(COC(=O)COc2ccccc2C(C)C)cs1 | – | inconclusive: -1.25% |
| O=C(Nc1ccc(C(=O)O)cc1)Nc1ccc(F)cc1F | – | inconclusive: 0.234% |
| Clc1ccc(-c2cnc3n2CCC3)cc1 | – | inconclusive: -62.9% |
| O=C(Oc1ccc([N+](=O)[O-])cc1)c1cccnc1 | – | inconclusive: 36.5% |
| O=C(COC(=O)CCCOc1ccccc1)NNC(=O)c1ccc([N+](=O)[O-])cc1 | – | inconclusive: 15.5% |
| COc1ccccc1CC(=O)N1CCC(n2nccc2NC(=O)C2CCOC2)CC1 (stereo not given) | inconclusive: 0.82 µM [falling, full curve] | – |
| Cc1cc(OCC(=O)N(C)Cc2ccccc2)ccc1Br | – | inconclusive: -72.9% |
| Cc1cc(C(=O)NNC(=O)c2ccc(Cl)cc2)no1 | inconclusive: 0.0065 µM [falling, full curve, poor fit] | – |
| COc1ccc(-c2nc3c(n2O)CCC/C3=N\O)cc1 | active: 4.61 µM | – |
| CCc1ccc[n+](-c2nc([O-])sc2C=O)c1 | – | inconclusive: -16.9% |
| COc1ccc(C)cc1-n1c(SCC(=O)NC2CC2)nc2ccccc2c1=O | – | inconclusive: 20.5% |
| O=C(COc1ccccc1)N1c2ccccc2Sc2ccccc21 | inconclusive: 14.6 µM [activator, partial curve, poor fit] | – |

| SMILES | Potency | lipid storage change, negative = inhibition |
| --- | --- | --- |
| COCCNC(=O)NC(=O)COC(=O)C12CC3CC(CC(NC(C)=O)(C3)C1)C2 | – | inconclusive: 4.84% |
| Cc1ccnc(Nc2nc(-c3ccccc3)cs2)c1 | inconclusive: 1.84 µM [falling, single point] | – |
| Cc1ccc(S(=O)(=O)c2nc(-c3ccccc3Cl)oc2N(C)C)cc1 | inconclusive: 29.1 µM [activator, single point] | – |
| Cc1c(C(=O)NN2CCOCC2)oc2c1ccc1ccccc12 | – | inconclusive: -26.8% |
| CCS(=O)(=O)N1Cc2ccccc2CC1C(=O)Nc1cc(S(C)(=O)=O)ccc1Cl (stereo not given) | inconclusive: 3.66 µM [activator, partial curve] | – |
| CCCN(C(=O)Cn1ncc2c(=O)oc3ccccc3c21)c1cccc(C)c1 | – | inconclusive: 14.3% |
| Cc1cc([N+](=O)[O-])nn1CC(=O)Nc1ccc(Cl)cn1 | – | inconclusive: -40.9% [cytotoxic] [at 0.369 µM] |
| COc1ccc(C(=O)Nc2ccc3ccccc3c2)cc1OC | – | inconclusive: -33.4% |
| Cc1onc(-c2c(F)cccc2Cl)c1C(=O)OCC(=O)NC(=O)NCC(C)C | – | inconclusive: 71.4% |
| CN(C(=O)c1ccccc1)C1c2c(ccc3ccccc23)OCC1CO (stereo not given) | – | inconclusive: 103% |
| N#Cc1cccc(C(=O)OCC(=O)N2CCCc3ccccc32)c1 | – | inconclusive: -11.9% |
| O=C(OCc1ccccc1)c1cc(S(=O)(=O)N2CCCCC2)ccc1N1CCOCC1 | inconclusive: 23.1 µM [falling, single point] | – |
| COc1ccc(Cl)cc1S(=O)(=O)N(C)CC(=O)NCc1ccccn1 | – | inconclusive: 26.6% |
| Cc1onc(-c2ccccc2)c1C(=O)c1c[nH]c(C(=O)NCc2ccccn2)c1 | – | inconclusive: -1.04% |
| O=C(NCCCn1ccnc1)/C(=C\c1cccnc1)NC(=O)c1ccco1 | inconclusive: 29.1 µM [falling, single point] | – |
| O=C(CCNC(=O)c1ccccc1)NCC1CCCCC1 | – | inconclusive: -21% |
| CCN(CCNC(=O)c1cccc(N2CCCC2=O)c1)c1ccccc1 | inconclusive: 0.58 µM [rising, full curve] | – |
| Cc1ccc(S(=O)(=O)N(CC(=O)Nc2cc(C)ccc2C)C(=O)N2CCN(C)CC2)cc1 | – | inconclusive: 26.2% |
| COC(=O)c1c(C)oc(C)c1S(=O)(=O)NC(C)(C)C | – | inconclusive: -14.4% |
| Cc1cc(NC(=O)c2cc(-c3ccncc3)nc3c(C)cccc23)no1 | – | inconclusive: -5.77% |
| COc1ccc(OC)c(/C=C/C(=O)N2CCCc3ccccc32)c1 | – | inactive |
| COc1ccc(CCN(Cc2ccccn2)C(=S)Nc2ccc(C)cc2)cc1OC | inconclusive: 25.9 µM [rising, single point] | – |
| CCc1nnc(NC(=O)CCS(=O)(=O)Cc2ccccc2)s1 | – | inconclusive: -5.42% |
| Cc1cccc(C)c1Nc1nnc(SCc2nc3ccccc3c(=O)[nH]2)s1 | inconclusive: 29.1 µM [falling, single point] | – |
| CCCC(=O)Nc1cc(OC)c(C(=O)OC)cc1Cl | – | inconclusive: 3.9% |
